Results reported in patent US8884032B2, “Trioxane monomers and dimers” (The Johns Hopkins University, priority 2009, dated 2014).
Some results were stated once for a whole list of compounds, not compound by compound.

Columns and labels:
[1] = Thermal stability in the absence of solvent (1H NMR); assay type: physicochemical; settings: for decomposition detected by 1H NMR spectroscopy: after heating without solvent at 60° C. (1 week / 7 days) and 70° C. (24 h / 1 day); for stable in the absence of solvent at 60° C. / stable in the absence of solvent at 70° C.: neat solid
Source text: Referring now to Scheme 3, C-10 acetate 2d was converted into C-10-allyl derivative 7 and then, via hydroboration followed by oxidation, into monomeric trioxane carboxylic acid 8. Jung et al, 2003. Monomeric trioxane carboxylic acid 8 can be transformed in one step directly into a diverse library of monomeric trioxane amides. Jung et al, 2003. For example, one-step amidation of carboxylic acid 8 produced trioxane fluoroaryl amide 4a, a monomeric version of dimer fluoroaryl amide 3 (Scheme 3). In the same way, monomer trioxane fluoroanilide 4b was prepared directly and in good yield from carboxylic acid 8 (Scheme 3). The overall yield of 4b is approximately 48% from natural trioxane 1, and scale up to multigram or even kilogram amounts is expected to be straightforward. Fluoroanilide 4b is stable as a solid in the absence of solvent for at least 7 days at 60° C. and for at least 1 day at 70° C. Because amides 3, 4a, and 4b also are C-10 non-acetal trioxanes, they are all more hydrolytically stable than the C-10 acetal trioxane drugs 2b and 2c.
Referring once again to Scheme 4, dihydroartemisinin acetate 2d, prepared from natural trioxane 1 in near quantitative yield, Posner et al., 2003, underwent tin-promoted dimerization, Posner et al., 2003, with bis-allylic silane 10, Bigot and Breit, 2008, to form pure C-10b, C10b-trioxane dimer alcohol 11 in 59% yield. […] The versatile secondary alcohol functional group in dimer 11 allowed diverse benzoate ester derivatives 6 to be prepared in only one additional step in 65% to 83% yields (Scheme 4). Each of benzoate esters 12a-12c in the absence of solvent is thermally stable at the elevated temperature of 60° C. for at least 1 week and at 70° C. for at least 24 h, with less than 5% decomposition detected by ^1H NMR spectroscopy. As C-10 non-acetals, the presently disclosed trioxane dimers are much more hydrolytically stable than the clinically used C-10 acetal trioxane drugs 2b and 2c.
Referring once again to Scheme 5, chemical synthesis of the presently disclosed silylamide trioxane monomers 14a and 14b and silylamide trioxane dimer 16 from the natural artemisinin 1 proceeded easily on gram scale in at least 56% overall yield via dihydroartemisinin acetate 2b and then via either trioxane monomer carboxylic acid 13 or trioxane dimer carboxylic acid 15. Quantitative amide formation was achieved using commercial silylamines and standard coupling reagents. Scale up to kilogram quantities is expected to be straightforward. Silylamide trioxanes 14a, 14b, and 16 are stable in the absence of solvent for at least 7 days at 60° C. and at least 1 day at 70° C.; less than 2% decomposition was observed by proton NMR spectroscopy. Because these silylamides are C-10 non-acetal trioxanes, they are more hydrolytic ally stable than the clinically used C-10 acetal trioxane drugs 2c and 2d.

[2] = Overt toxicity, behavioral change and body weight in treated malaria-infected mice (silylamide study); assay type: in vivo; settings: 8 mg/kg trioxane + 24 mg/kg mefloquine hydrochloride; as much as uninfected control group
Experimental: Each trioxane silylamide 14a, 14b, and 16 (0.90 mg) was dissolved in 0.11 mL of 7:3 Tween 80:ethanol and then diluted with 1.10 mL of water for oral administration to 5-week old C57BU6J male mice (from the Jackson Laboratory) weighing 18-19 grams that were infected intraperitoneally on day 0 with the Plasmodium berghei, ANKA strain (2×10^7 parasitized erythrocytes). Woodard et al., 2009. Each of 3 mice in a group was treated orally 24 hours post-infection with a single dose of 0.20 mL (0.20 mL/1.21 mL×0.9 mg=0.15 mg) of diluted compound solution, corresponding to a dose of 8 mg/kg, combined with 24 mg/kg of mefloquine hydrochloride. Determining blood parasitemia levels, as well as monitoring the duration of animal survival compared to survival time of animals receiving no drug, are both widely accepted as measures of a drug's efficacy in antimalarial drug development. […] Animals infected but receiving no drug died on an average of 15 days post-infection. A widely accepted yardstick of cure (i.e., 100% efficacy) is survival of animals to at least day 30 post-infection, with no detectable malaria parasites in the animal's blood at that time.

C[C@H]1[C@@H](CCC(=O)NC[Si](C)(C)C)O[C@@H]2O[C@]3(C)CC[C@H]4[C@H](C)CC[C@@H]1[C@@]24OO3 [14a]
decomposition detected by 1H NMR spectroscopy [1]: less than 2% | stable in the absence of solvent at 60° C. [1]: at least 7 days | stable in the absence of solvent at 70° C. [1]: at least 1 day | weight gained by the end of the experiment [2]: 8 to 10 g

C[C@H]1[C@@H](CCC(=O)NCCC[Si](C)(C)C)O[C@@H]2O[C@]3(C)CC[C@H]4[C@H](C)CC[C@@H]1[C@@]24OO3 [14b]
decomposition detected by 1H NMR spectroscopy [1]: less than 2% | stable in the absence of solvent at 60° C. [1]: at least 7 days | stable in the absence of solvent at 70° C. [1]: at least 1 day

C[C@H]1[C@@H](CC(C[C@H]2O[C@@H]3O[C@]4(C)CC[C@H]5[C@H](C)CC[C@@H]([C@H]2C)[C@@]35OO4)C(=O)NC[Si](C)(C)C)O[C@@H]2O[C@]3(C)CC[C@H]4[C@H](C)CC[C@@H]1[C@@]24OO3 (some centres unmarked) [compound 16]
decomposition detected by 1H NMR spectroscopy [1]: less than 2% | stable in the absence of solvent at 60° C. [1]: at least 7 days | stable in the absence of solvent at 70° C. [1]: at least 1 day | weight gained by the end of the experiment [2]: 8 to 10 g
